In paper PMC12046912:
Results are given in words; binding and its absence hold for the method and conditions named. Binding seen in cells or lysates may run through a third protein. Some results given as binding are weak or reduced against the parent protein; the word gives no strength.

Amino acid sequences for entries named in this document (tags omitted). Residues count along the entry.
UniProt Q6YHK3, residues 22-1420: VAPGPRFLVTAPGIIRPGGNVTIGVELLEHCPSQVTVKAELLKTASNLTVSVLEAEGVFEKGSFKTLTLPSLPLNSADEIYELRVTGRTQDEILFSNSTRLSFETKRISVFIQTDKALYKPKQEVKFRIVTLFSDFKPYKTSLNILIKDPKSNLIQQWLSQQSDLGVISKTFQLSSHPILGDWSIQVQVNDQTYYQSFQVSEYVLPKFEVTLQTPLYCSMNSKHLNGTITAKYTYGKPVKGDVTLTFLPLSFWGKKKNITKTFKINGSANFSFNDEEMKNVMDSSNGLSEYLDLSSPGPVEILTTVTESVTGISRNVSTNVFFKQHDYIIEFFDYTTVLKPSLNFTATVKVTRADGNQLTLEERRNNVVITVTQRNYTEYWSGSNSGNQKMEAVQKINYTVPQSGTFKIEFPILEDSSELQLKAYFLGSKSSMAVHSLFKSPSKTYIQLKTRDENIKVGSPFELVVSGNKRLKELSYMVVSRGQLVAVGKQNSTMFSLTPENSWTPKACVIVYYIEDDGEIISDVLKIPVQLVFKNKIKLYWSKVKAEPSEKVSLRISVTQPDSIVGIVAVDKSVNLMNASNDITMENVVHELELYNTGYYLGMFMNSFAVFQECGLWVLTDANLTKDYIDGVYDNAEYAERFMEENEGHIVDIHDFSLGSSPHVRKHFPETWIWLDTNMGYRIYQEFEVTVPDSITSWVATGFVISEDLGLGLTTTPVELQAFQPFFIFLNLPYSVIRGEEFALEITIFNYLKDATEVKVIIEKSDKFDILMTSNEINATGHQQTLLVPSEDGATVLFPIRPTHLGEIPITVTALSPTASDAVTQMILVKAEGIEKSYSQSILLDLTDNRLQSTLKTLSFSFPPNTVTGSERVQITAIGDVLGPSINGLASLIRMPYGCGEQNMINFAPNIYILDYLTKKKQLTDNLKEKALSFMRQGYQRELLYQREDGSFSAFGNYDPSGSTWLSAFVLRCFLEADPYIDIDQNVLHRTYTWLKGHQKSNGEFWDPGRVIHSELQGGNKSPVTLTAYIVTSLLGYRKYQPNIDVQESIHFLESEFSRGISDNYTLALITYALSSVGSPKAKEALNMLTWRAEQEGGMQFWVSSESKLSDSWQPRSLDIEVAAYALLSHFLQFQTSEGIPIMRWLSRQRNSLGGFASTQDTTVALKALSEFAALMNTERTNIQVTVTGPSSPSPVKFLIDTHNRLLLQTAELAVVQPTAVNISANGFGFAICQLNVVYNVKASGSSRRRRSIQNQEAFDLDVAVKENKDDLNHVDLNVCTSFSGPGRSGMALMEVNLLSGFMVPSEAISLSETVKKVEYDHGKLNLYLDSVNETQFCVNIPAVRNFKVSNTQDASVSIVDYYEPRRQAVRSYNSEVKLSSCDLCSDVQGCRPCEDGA
UniProt P40189, residues 23-918: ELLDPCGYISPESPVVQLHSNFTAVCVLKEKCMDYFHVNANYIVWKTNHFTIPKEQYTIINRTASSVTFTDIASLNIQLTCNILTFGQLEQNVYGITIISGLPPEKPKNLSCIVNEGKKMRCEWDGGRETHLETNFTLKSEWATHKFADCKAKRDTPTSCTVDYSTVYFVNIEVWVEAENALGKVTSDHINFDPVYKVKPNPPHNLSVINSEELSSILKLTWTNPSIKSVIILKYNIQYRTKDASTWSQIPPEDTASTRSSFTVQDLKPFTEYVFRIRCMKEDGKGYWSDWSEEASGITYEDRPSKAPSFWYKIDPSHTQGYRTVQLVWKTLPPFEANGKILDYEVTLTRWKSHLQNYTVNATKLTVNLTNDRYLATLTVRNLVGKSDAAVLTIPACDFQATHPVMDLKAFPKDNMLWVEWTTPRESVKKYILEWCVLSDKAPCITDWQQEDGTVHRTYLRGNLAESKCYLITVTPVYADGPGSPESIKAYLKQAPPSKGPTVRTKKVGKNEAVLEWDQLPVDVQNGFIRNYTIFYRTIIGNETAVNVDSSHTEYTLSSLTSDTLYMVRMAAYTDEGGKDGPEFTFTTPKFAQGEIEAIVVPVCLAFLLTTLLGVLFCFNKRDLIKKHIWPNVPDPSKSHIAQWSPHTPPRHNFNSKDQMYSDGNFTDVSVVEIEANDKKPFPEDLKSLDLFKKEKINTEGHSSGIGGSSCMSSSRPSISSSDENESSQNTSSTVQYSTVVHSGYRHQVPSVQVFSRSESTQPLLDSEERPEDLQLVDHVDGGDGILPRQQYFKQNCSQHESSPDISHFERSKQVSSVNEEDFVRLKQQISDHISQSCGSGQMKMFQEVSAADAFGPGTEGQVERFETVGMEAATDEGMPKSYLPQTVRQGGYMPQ
UniProt P40763: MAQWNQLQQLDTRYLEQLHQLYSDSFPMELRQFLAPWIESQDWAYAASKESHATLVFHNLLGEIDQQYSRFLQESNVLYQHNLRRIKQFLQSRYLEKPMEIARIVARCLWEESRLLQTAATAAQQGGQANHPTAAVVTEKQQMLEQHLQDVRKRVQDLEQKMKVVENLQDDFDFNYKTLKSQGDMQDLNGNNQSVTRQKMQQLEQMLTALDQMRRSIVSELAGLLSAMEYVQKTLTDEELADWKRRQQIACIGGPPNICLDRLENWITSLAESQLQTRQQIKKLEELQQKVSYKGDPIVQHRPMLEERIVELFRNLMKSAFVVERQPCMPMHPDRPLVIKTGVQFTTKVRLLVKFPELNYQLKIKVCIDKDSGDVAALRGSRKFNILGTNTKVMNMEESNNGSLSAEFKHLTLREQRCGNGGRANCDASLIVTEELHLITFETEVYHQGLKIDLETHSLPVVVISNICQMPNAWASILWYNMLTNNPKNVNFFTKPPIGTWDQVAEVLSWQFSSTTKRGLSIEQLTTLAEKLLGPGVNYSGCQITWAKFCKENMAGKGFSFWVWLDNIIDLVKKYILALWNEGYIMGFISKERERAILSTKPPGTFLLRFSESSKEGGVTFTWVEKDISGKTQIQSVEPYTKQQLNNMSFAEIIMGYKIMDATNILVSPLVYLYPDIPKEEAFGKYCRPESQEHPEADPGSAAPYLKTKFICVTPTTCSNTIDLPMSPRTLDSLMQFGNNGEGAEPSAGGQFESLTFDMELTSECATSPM

Key:
[1] = molecular target: CD109 (Cluster of Differentiation 109) (human (endogenous in A431 and SCC9)) (UniProt Q6YHK3); assay: co-IP; as a1, after siRNA knock-down of IL6Rα (Figure S11)
[2] = molecular target: T1, Nuclear factor erythroid 2-related factor 2 (human (endogenous in SCC9)) (UniProt Q16236); assay: co-IP; endogenous proteins in total cell lysates (Pierce IP Lysis Buffer); 500 μg protein with 2.5 μg/ml antibody (anti-CD109, anti-IL6Rα, anti-STAT3 or anti-NRF2) overnight at 4 °C, Protein G magnetic beads, Western blot; control IgG; cells without or with 20 ng/ml IL-6 (25 min by the methods; overnight for STAT3-NRF2 by the legend of Fig. 7A)
T1 sequence: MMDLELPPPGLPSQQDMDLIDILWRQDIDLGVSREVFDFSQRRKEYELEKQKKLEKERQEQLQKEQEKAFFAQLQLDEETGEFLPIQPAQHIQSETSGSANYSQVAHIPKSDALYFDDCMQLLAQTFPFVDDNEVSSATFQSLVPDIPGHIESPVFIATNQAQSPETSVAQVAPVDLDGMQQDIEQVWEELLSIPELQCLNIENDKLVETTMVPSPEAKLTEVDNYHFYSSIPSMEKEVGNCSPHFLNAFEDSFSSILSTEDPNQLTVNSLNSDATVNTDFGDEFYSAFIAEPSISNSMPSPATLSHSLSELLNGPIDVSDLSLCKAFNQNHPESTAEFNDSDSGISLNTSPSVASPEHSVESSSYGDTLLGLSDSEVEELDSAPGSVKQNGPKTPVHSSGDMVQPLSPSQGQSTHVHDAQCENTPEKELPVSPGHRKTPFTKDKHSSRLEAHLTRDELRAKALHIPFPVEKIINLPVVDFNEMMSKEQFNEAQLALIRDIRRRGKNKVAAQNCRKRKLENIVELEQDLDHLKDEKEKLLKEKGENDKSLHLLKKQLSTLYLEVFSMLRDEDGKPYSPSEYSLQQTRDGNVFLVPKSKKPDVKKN

“Glycoprotein 130 (from UniProt P40189 23-918) (receptor)” was tested, and the binding [1] was “no binding (condition: after siRNA knock-down of IL6Rα)”.

“Signal Transducer and Activator of Transcription 3 (from UniProt P40763 1-770)” was tested, and the binding [2] was “binds”.
